Results taken from the supplement of paper PMC12067093, “Discovery and optimisation of a covalent ligand for TRIM25 and its application to targeted protein ubiquitination” (Chemical Science, 2025).
Some of the results follow.

Sequences of proteins named here, by UniProt entry; tags and fusion partners are left off. A change or cut given only in a name is not applied to a line headed by its entry.
UniProt O75449: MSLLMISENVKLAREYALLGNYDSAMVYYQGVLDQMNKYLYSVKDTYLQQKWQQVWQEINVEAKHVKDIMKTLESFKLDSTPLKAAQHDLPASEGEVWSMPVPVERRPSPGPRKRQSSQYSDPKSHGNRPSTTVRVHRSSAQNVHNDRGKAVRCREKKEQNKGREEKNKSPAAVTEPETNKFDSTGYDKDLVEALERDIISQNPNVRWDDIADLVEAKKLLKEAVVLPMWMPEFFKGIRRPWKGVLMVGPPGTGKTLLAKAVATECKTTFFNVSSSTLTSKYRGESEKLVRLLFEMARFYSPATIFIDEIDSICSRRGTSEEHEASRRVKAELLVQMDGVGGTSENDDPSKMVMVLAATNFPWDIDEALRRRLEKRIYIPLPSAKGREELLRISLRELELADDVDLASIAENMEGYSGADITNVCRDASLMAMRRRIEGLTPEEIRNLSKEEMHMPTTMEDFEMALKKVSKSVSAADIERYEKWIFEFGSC
UniProt Q14643, whole entry, looked up: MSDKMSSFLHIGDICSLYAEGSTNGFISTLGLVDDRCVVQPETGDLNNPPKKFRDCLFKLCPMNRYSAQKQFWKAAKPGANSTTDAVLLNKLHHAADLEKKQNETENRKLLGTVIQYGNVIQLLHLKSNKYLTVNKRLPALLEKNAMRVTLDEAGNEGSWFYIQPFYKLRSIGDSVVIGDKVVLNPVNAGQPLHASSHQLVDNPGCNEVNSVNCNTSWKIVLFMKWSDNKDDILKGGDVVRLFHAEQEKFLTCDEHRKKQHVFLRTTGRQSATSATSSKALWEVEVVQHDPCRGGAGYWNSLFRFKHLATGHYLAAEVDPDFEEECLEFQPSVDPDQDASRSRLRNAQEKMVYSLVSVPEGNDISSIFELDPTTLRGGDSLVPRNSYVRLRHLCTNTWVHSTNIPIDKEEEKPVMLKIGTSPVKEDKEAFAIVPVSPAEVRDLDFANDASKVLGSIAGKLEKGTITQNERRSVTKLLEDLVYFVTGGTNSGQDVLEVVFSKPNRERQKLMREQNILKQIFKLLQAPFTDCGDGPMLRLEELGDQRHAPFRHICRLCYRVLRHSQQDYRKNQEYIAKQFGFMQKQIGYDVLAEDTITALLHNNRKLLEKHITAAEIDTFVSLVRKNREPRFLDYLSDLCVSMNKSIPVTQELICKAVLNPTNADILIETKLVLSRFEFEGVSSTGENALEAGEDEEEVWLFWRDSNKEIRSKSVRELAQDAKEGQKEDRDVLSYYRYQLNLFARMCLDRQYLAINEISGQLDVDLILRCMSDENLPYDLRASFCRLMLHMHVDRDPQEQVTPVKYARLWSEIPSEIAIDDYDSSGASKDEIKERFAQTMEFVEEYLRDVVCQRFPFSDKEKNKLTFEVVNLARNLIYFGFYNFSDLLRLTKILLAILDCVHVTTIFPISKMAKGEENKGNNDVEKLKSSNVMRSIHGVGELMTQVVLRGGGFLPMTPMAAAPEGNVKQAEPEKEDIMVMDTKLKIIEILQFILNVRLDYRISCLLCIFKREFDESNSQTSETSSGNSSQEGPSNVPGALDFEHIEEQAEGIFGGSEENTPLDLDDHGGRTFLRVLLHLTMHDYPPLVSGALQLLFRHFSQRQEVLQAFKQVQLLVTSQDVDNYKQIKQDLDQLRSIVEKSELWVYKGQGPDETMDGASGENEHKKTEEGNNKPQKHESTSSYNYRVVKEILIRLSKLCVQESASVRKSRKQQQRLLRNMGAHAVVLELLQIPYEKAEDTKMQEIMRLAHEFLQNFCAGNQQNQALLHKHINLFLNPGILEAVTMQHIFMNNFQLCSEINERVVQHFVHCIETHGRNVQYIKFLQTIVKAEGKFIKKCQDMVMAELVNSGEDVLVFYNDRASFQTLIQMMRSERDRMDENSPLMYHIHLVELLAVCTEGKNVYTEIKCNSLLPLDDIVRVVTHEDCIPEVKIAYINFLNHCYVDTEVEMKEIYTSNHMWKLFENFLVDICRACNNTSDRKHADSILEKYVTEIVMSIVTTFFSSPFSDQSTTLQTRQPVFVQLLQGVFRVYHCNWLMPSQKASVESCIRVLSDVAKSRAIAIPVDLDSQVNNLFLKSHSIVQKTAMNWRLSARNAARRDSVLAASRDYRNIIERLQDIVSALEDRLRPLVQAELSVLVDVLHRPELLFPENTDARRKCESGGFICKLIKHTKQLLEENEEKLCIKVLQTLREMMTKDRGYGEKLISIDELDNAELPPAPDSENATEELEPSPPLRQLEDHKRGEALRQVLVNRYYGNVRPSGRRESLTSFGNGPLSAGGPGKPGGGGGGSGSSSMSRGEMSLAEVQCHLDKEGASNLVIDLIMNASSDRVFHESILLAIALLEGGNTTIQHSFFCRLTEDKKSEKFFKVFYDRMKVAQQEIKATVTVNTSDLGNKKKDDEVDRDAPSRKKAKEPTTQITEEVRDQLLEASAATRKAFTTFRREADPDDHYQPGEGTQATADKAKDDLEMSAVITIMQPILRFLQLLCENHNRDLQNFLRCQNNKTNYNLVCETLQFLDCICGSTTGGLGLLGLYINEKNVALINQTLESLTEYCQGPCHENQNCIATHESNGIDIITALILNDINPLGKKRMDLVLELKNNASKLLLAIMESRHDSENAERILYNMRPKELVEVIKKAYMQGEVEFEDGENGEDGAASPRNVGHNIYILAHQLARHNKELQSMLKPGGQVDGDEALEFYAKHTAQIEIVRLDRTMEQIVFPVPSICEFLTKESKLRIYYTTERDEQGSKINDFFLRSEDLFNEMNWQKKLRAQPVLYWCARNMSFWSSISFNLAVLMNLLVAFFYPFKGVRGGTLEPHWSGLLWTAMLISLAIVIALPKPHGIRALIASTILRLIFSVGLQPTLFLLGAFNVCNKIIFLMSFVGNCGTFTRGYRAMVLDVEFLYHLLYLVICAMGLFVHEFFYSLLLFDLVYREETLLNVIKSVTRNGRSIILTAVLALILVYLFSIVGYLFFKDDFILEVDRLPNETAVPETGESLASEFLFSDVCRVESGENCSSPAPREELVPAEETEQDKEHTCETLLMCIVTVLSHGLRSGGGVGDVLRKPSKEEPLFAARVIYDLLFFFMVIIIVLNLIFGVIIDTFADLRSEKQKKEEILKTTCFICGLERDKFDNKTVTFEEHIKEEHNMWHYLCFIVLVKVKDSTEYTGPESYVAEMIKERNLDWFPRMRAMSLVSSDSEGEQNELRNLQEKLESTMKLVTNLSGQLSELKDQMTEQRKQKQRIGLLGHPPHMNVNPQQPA
UniProt Q92830, whole entry, looked up: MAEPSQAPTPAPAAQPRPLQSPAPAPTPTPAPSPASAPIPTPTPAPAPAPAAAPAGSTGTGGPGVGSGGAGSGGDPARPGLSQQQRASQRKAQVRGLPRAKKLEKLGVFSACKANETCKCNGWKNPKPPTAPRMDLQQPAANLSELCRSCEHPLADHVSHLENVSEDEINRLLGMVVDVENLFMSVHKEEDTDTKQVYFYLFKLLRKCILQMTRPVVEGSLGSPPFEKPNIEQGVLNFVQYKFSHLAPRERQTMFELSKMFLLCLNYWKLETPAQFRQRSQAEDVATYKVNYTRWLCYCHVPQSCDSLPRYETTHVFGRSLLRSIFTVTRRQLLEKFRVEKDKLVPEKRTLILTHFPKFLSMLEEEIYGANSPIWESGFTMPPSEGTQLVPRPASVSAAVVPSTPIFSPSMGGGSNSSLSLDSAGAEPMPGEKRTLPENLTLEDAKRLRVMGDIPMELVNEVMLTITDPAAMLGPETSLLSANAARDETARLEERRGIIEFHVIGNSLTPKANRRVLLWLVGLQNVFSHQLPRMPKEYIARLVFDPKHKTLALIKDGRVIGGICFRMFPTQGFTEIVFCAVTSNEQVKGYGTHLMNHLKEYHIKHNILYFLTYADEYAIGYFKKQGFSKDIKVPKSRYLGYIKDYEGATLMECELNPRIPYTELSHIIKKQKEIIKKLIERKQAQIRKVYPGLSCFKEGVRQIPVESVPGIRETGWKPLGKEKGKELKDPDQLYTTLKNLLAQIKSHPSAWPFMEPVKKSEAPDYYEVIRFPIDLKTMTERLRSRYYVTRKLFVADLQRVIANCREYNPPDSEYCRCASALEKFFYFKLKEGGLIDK
UniProt Q13303: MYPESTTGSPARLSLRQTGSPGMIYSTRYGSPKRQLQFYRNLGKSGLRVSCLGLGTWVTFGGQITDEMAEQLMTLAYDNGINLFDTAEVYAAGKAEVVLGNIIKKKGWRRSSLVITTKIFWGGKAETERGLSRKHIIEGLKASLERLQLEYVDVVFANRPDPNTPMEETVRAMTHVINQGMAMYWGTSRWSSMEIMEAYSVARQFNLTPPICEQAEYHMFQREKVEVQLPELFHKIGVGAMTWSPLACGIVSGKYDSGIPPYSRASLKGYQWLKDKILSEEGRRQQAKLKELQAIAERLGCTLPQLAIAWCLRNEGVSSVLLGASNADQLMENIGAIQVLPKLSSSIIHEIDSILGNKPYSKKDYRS
UniProt Q9Y6Y0: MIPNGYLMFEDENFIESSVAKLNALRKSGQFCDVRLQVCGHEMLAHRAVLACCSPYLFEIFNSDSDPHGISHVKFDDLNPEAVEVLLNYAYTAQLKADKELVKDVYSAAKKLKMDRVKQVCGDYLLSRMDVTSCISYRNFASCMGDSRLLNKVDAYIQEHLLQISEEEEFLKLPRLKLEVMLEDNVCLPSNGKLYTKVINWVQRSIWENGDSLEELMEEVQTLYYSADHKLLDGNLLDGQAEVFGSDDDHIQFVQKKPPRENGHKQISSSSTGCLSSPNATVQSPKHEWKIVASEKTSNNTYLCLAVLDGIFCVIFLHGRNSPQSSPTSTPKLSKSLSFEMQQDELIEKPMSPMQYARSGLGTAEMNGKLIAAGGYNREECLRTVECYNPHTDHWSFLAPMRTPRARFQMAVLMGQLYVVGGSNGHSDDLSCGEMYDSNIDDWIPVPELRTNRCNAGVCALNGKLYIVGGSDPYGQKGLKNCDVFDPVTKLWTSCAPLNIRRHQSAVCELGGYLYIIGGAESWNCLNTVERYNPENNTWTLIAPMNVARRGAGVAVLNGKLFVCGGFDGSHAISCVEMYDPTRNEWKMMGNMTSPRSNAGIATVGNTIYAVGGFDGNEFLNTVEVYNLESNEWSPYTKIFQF
UniProt P52732: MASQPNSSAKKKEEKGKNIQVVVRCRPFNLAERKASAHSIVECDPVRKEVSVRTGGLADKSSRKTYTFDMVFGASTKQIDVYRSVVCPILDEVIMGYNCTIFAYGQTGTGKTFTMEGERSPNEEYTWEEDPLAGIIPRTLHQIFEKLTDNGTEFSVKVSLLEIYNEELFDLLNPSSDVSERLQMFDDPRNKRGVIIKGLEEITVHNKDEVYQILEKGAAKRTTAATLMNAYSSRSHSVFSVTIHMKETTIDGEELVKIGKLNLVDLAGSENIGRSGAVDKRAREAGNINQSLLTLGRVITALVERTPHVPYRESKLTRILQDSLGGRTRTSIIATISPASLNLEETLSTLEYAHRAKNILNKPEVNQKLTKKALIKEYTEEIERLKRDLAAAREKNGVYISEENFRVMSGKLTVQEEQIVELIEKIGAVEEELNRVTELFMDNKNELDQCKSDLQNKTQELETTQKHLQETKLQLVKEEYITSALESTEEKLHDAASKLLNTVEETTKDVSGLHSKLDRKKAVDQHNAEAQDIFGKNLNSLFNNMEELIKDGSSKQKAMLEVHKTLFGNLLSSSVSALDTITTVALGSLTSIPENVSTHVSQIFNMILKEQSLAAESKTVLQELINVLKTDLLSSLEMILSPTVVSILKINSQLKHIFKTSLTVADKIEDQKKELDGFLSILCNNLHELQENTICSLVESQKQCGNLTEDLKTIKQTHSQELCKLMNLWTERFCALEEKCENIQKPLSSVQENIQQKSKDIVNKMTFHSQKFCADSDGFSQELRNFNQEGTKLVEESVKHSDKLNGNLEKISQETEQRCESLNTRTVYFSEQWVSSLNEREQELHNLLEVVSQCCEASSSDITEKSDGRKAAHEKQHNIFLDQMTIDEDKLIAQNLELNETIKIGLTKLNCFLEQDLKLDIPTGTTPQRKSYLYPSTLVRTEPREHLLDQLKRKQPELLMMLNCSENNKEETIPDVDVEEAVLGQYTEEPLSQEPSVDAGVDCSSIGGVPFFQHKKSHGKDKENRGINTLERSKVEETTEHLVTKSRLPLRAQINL

Compound: CC1Cc2ccccc2N1C(=O)C1CCCN(C1)C(=O)CCl (mixture of isomers) [TRIM25 ligand 11 (diastereomer mixture)]
Experiment: probe-labelled cysteine peptide fold change vs DMSO (competition) (log2 fold change); higher = less target engagement (more negative = stronger competition)
Conditions: THP-1, incubation time: 4 h
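Note: competitive chemoproteomic profiling in live THP-1 cells with an iodoacetamide desthiobiotin (IA-DTB) probe, comparing probe-labelled peptide intensities in compound-treated cells against DMSO-treated controls.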

Target | probe-labelled cysteine peptide fold change (10 µM) | probe-labelled cysteine peptide fold change (50 µM)
KATNA1_O75449_491_WIFEFGSC (UniProt O75449) | -0.258 | 0.00115
KATNB1_Q9BVA0_43_LLATGGDDCR (UniProt Q9BVA0) | 0.0141 | 0.0582
JMJD1C_Q15652_1935_SHCHCTNK (UniProt Q15652) | 0.112 | -0.0929
KDM5B_Q9UGL1_1221_IWLCPHCR (UniProt Q9UGL1) | -0.112 | -0.0757
KAT8_Q9H7Z6_230_FHLGQCQWR (UniProt Q9H7Z6) | -0.0637 | -0.137
ITPR1_Q14643_292_ALWEVEVVQHDPCR (UniProt Q14643) | 0.0538 | -0.00117
KIF15_Q9NS87_1062_ILSEDIERDMLCEDLAHATEQLNMLTEASKK (UniProt Q9NS87) | -0.437 | -0.338
KAT2A_Q92830_653_DYEGATLMECELNPR (UniProt Q92830) | 0.0318 | -0.0486
KIF14_Q15058_508_IHDLLVCK (UniProt Q15058) | -0.0396 | -0.094
KDM1A_O60341_618_CDAVLCTLPLGVLK (UniProt O60341) | 0.124 | 0.0108
KHNYN_O15037_245_ESLDTGSMGPGDCR (UniProt O15037) | -0.177 | -0.355
KCNAB2_Q13303_212_QFNLTPPICEQAEYHMFQR (UniProt Q13303) | 0.169 | -0.0682
KIAA0100_Q14667_471_GVLTVDHLCWR (UniProt Q14667) | -0.0348 | 0.138
IVNS1ABP_Q9Y6Y0_495_LWTSCAPLNIR (UniProt Q9Y6Y0) | 0.165 | 0.216
KIF11_P52732_723_QTHSQELCK (UniProt P52732) | -0.0306 | -0.0307

2 entries from above, in markdown:

| Target | probe-labelled cysteine peptide fold change (10 µM) | probe-labelled cysteine peptide fold change (50 µM) |
| --- | --- | --- |
| ITPR1_Q14643_292_ALWEVEVVQHDPCR (UniProt Q14643) | 0.0538 | -0.00117 |
| KIF15_Q9NS87_1062_ILSEDIERDMLCEDLAHATEQLNMLTEASKK (UniProt Q9NS87) | -0.437 | -0.338 |
